The source of these data is patent US20150119285.

For at least one entry, the source does not settle the construct or the ends of the probe. Tags and fusion partners may be left off the protein sequences shown.

The target of the first data set is T1, C-reactive protein (CRP) (UniProt P02741).
T1 sequence (looked up, limits assumed): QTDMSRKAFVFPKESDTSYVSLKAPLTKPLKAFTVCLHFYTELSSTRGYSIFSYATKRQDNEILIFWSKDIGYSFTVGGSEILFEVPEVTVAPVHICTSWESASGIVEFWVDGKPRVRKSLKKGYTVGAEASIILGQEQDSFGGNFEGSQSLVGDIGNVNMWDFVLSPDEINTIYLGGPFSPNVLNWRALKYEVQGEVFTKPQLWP
Nature of the data set: pull-down. The settings on record: bead pulldown with qPCR, BD buffer, room temperature; assayed with primer flanks; single-stranded DNA. (Real-time PCR tracks product formation cycle by cycle.)
TCTGTAATTTATAGTTCCAT [20N RO >27K-1] yielded a dissociation constant Kd of 6.26 nM. In the case of AATTACAAATTTGGACTGTT [20N AC >200K-2], the dissociation constant (Kd) was found to be 8.35 nM. GCCTAAAGCTGGATTCCCTG [OS-Mi-20N-1]: the Kd was 0.33 nM. The same measure, in the same setting: the result for CACATTAGGTGTGATAAGGC [20N RO F27K-6] reads 22.5 nM. Same read-out and setting: the result for TTGGCACAAAGCGGTGTTAC [20N HAC 400g-1] reads 5.67 nM.

Staying with this data set, now noted: single-stranded DNA.
Consider TATGTATGGAATCACAATCC [20N HAC 25g-1], for which the binding result is on record as “binds”. Same read-out and setting: for ATACTCGCCGCTTTTGAATT [20N AC F2-4] the value was “binds”; for AGTTAGTTTCAGTGGGTCCC [20N RO F20-4], “binds”; for TTTTAGTTGTGCCTGGTGCG [20N RO F200-3], “binds”. Same read-out and setting: the result for TTGTCTCTGGGGATCTAAAC [20N AC F200K-2] reads “binds”; that for CTGTGGTTGGCGCTTGGCAT [20N HAC 100g-1], “binds”. Still for that read-out and setting: for TGTATGGTGGTTCCATCTTC [20N HAC 12.5g-2] the value was “binds”. In the case of TTGGCTTTAACTATATGGAG [20N AC F2K-4], the binding result is given as “binds”.

In the case of TATGATAAGGTGATAACATG [20N HAC 200g-3], the binding result was “binds”.

Take TATGCGGGTGTTTGCGACTG [20N AC F20-2]: the binding result is reported as “binds”. Same read-out and setting: for GGTGTGCGTTATTCTGTGGC [20N RO F2K-1] the value was “binds”. Still for that read-out and setting: the result for TCTTCCGCCGTACCGTTCCC [20N AC F20K-3] reads “binds”; that for TGCTATTCAGGTGGACTATG [20N HAC >400g-1], “binds”. Same read-out and setting: the result for TTGCGGGATGAAGTGTCTAA [20N HAC 25g-2] reads “binds”; that for ACCCTACGTACGTTCTCATG [20N RO F20K-1], “binds”. For CTTTCTTTCTAGGTGTGTG [20N AC F20-4], the binding result is “binds”. The same measure, in the same setting: the result for ACCGTGTTGTCTGAGGTCTC [20N RO F20-5] reads “binds”; that for GTTTACTGTTTTATTGCGCT [20N HAC 200g-2], “binds”. On the same count and under the same terms, for TGGACTTCATTTTAAGTATG [20N HAC 100g-2] the value was “binds”; for CTCTTGGACAACTGGATTAG [20N RO F2K-4], “binds”; for TTGGTTTGTAACATTGATGG [20N RO F2-2], “binds”. The same measure, in the same setting: for TCGGTGTGCCACTTTCTCAA [20N RO F200-1] the value was “binds”; for TTTTTCGCTGGTGTTCGACC [20N RO >27K-5], “binds”. On to GCCCCCGAAGTTGCTTAGTC [20N RO F27K-4], for which the binding result was “binds”.

For the sequence TGACTTACATGTACTACTTT [20N AC F200-1], the binding result is “binds”. Still for that read-out and setting: for GCATTGTATCACAGGTACTG [20N AC F200K-1] the value was “binds”; for ATTGTTCGTTATTGCGTTCG [20N AC F2-2], “binds”. Same read-out and setting: the result for CTCCTTTTGATTTGCGGGTA [20N AC F2K-1] reads “binds”.

Turning to TCTACGCGATATTCTCCCCC [20N AC F20K-1], the binding result is on record as “binds”. Same read-out and setting: the result for TTGCATAGTTCGGTTCTATG [20N HAC 12.5g-1] reads “binds”; that for ATATAATTTTGCTCTTTATT [20N RO F20K-2], “binds”; that for TTGGTATTCCTCGCGTTTTT [20N HAC 50g-2], “binds”. The same measure, in the same setting: for GTGTCGTTCGGTGCATCATG [20N HAC 400g-5] the value was “binds”.

On to TCCTGTTGATGTGTGTTATATG [20N AC >200K-1], for which the binding result is recorded as “binds”.

In the case of TGGCAACTTTTGAACGCGTT [20N HAC >400g-4], the binding result is recorded as “binds”. Same read-out and setting: for GCGTTTGGCATCCCTCGGTC [20N HAC 50g-9] the value was “binds”; for TGTCAGTTTGATCTGTAATT [20N AC F200-2], “binds”; for AGACCTTTGAAGGCCCCAAG [20N RO F2-1], “binds”.

As usually defined, the Kd is the concentration at which binding is half-saturated. Read a high Kd as a looser complex.
